Data as given in PubChem BioAssay AID493014 (National Center for Advancing Translational Sciences (NCATS), 2011).
This is one part of the list. Further columns of the screen follow, without active or inactive calls. Compounds called inactive in the main read-out are mostly missing here. Potencies come from curve fits of mixed quality, noted in brackets.

Experiment: qHTS Assay to Find Inhibitors of Chronic Active B-Cell Receptor Signaling
Conditions: ABC-DLBCL IkBa-CBG/CBR reporter, luminescence ratio (green luciferase fused to IkBa over red control in TMD8 lymphoma cells), 4 h
How it was run: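 TMD8 human ABC-DLBCL cells with doxycycline-inducible IκBα–green luciferase fusion and unfused red luciferase, in 0.5% FBS medium; compounds up to 46 uM, 4 h at 37C. Green/red luminescence ratio, filter-overlap corrected, fitted to concentration-response curves.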

[1] = measured here: CBR red luminescence, cell number
[2] = measured here: IkBa-CBG green luminescence

| SMILES | AC50 [1] | AC50 [2] |
| --- | --- | --- |
| COC(=O)c1ccc(COc2ccc(Cl)cc2)o1 | 4.47 µM [rising, full curve, poor fit] |  |
| Cc1cccc(N2CC(C(=O)O)CC2=O)c1 (stereo unspecified) | 9.2 µM [falling, partial curve, poor fit] |  |
| CCOC(=O)N1CCN(C(=O)c2ccc(Cn3c(=S)[nH]c4cc(C(=O)OC)ccc4c3=O)cc2)CC1 | 14.1 µM [falling, partial curve] |  |
| O=C1NN=C(c2ccc(Cl)cc2)CC1c1c[nH]c2ccccc12 (stereo unspecified) | 12.6 µM [falling, partial curve] |  |
| CCc1nc(Nc2ccccc2F)c2oc3ccccc3c2n1 | 0.794 µM [falling, full curve] |  |
| O=C(N/N=C/c1cccs1)c1c[nH]c2ccccc12 | 9.2 µM [falling, partial curve] |  |
| CCOC(=O)c1cc(-c2cccc(C(F)(F)F)c2)nc2nc(SC)[nH]c(=O)c12 | 3.66 µM [rising, partial curve, poor fit] |  |
| Cc1nc2sc(C)c(C)c2c(=O)o1 | 6.51 µM [falling, single point] |  |
| CCN(CC)S(=O)(=O)c1ccc2c(c1)N(CC(=O)NCCCN1CCN(c3cc(C)ccc3C)CC1)C(=O)CO2 | 8.91 µM [falling, partial curve, poor fit] |  |
| CC(=O)Nc1ccc(S(=O)(=O)N2CCC(c3nc4c(nnn4Cc4ccccc4Cl)c(=O)[nH]3)CC2)cc1 | 7.08 µM [falling, full curve, poor fit] |  |
| Cc1cc(C)c2c(N)c(C(=O)N/N=C/c3cccs3)sc2n1 | 0.562 µM [falling, full curve, poor fit] |  |
| COc1cc([N+](=O)[O-])cc(/C=N/NC(=O)c2cc(-c3ccccc3)nc3ccccc23)c1O | 20 µM [rising, single point] | 5.01 µM [falling, single point] |
| COc1ccccc1OCc1ccc(C(=O)Nc2ccccc2F)cc1 | 1.84 µM [falling, full curve, poor fit] |  |
| O=C1N(c2ccccc2)C2CS(=O)(=O)CC2N1c1ccc(Cl)c(Cl)c1 (stereo unspecified) | 17.8 µM [falling, partial curve, poor fit] |  |
| CC(C)CC1CC(=O)OC1(C)C(=O)CSc1nc2ccccc2s1 (stereo unspecified) | 17.8 µM [rising, single point] |  |
| CCCN1C(=O)C2(C(C(=O)c3ccc(C)o3)=C(O)C(=O)N2CCCOC)c2ccccc21 (stereo unspecified) | 10 µM [rising, partial curve, poor fit] |  |
| COc1cc(/C=C(\C#N)C(=O)NC2CCCCC2C)ccc1OS(=O)(=O)c1ccc(C)cc1 (stereo unspecified) | 14.6 µM [falling, single point] |  |
| COc1cc(/C=C/C(=O)Nc2ccc(OC)c(S(=O)(=O)N3CCOCC3)c2)ccc1OC(F)F | 4.61 µM [falling, single point] |  |
| CCOC(=O)c1csc(Nc2nc3ccc(F)cc3s2)n1 | 0.398 µM [rising, full curve] |  |
| COc1ccc(N2CCN(C(=O)c3cc4cc(Cl)ccc4[nH]3)CC2)cc1 | 22.4 µM [falling, single point] |  |
| O=C(Oc1ccc(Br)cc1)c1cccnc1 | 35.5 µM [rising, single point] |  |

| SMILES | AC50 [1] | AC50 [2] |
| --- | --- | --- |
| CCN(CC)CCCNc1nc(N)c([N+](=O)[O-])c(NCCO)n1 | 31.6 µM [falling, single point] |  |
| Cc1cccn2c(=O)nc(SCC(=O)c3ccccc3)nc12 | 1.03 µM [falling, full curve] |  |
| CC(=O)Nc1ccc(Cc2nc3c([nH]2)c(=O)n(C)c(=O)n3C)cc1 | 8.91 µM [falling, partial curve] |  |
| [S-]C(=Nc1ccc(Cl)cc1)N[n+]1ccccc1 | 29.1 µM [falling, single point] |  |
| O=C(c1cccnc1)N1CCC(Oc2ccc(C(=O)N3CCCCO3)cc2)CC1 | 6.31 µM [rising, single point] |  |
| COc1ccc(OC)c(/C=C2\S/C(=N/NC(=O)c3ccc4ccccc4c3)NC2=O)c1 | 18.4 µM [rising, partial curve, poor fit] |  |
| Cc1ccc(C)c(-c2nnc(NC(=O)CS(=O)(=O)c3ccccc3)o2)c1 | 29.1 µM [falling, single point] |  |
| O=C(Cc1ccc(-c2ccccc2)cc1)OCC(=O)N1CCCC1=O | 7.94 µM [falling, partial curve] |  |
| Cc1cc(N(C)C)c(C#N)c(N2CCCCC2)n1 | 15.8 µM [rising, partial curve, poor fit] |  |
| O=C(Nc1ccccc1OC(F)F)c1ccccc1 | 25.9 µM [rising, single point] |  |
| CCOC(=O)N1CCc2c(sc(NCc3cccc(F)c3)c2C(=O)Nc2ccc(OCC)cc2)C1 | 31.6 µM [falling, single point] |  |
| COc1ccc(C(=O)NCCNc2nc3cc(C)c(C)cc3cc2C)cc1 | 3.16 µM [rising, partial curve, poor fit] |  |
| O=C(Nc1nnc(-c2cccs2)o1)c1cccc(C(F)(F)F)c1 | 11.6 µM [falling, partial curve] | 32.6 µM [falling, partial curve, poor fit] |
| O=C(CNC(=O)c1ccc(Br)o1)Nc1ncccc1O | 13 µM [falling, partial curve] |  |
| COc1ccc(CC(=O)N(C)CC(=O)Nc2c(C)cccc2C)cc1S(=O)(=O)N1CCOCC1 | 29.1 µM [rising, single point] |  |
| CSc1ccc(Cl)c(C(=O)Nc2nccs2)c1 | 4.47 µM [falling, full curve, poor fit] |  |
| CSCCC(NC(=O)OC(C)(C)C)C(=O)Oc1ccc2c(=O)c(-c3ccc4c(c3)OCCO4)coc2c1 (stereo unspecified) | 3.98 µM [falling, full curve] |  |
| COCCNC(=O)C(c1cccs1)N(CCc1ccccc1)C(=O)Cn1nnc2ccccc21 (stereo unspecified) | 29.1 µM [falling, single point] |  |
| N#CC1=C(N)NC(SCC(=O)Nc2ccc(Br)cc2)=C(C#N)C12CCCCC2 | 16.4 µM [falling, single point] |  |
| O=C(O)CCC(=O)/C=C/c1ccccc1 | 35.5 µM [falling, single point] |  |
| CC(OC(=O)C1CCN(c2ccc(C(F)(F)F)cn2)CC1)C(=O)Nc1cccc([N+](=O)[O-])c1 (stereo unspecified) | 10.3 µM [falling, partial curve, poor fit] |  |

3 compounds out of the list, sorted by formula weight, low to high:

| SMILES | AC50 [1] | AC50 [2] |
| --- | --- | --- |
| O=C(Nc1nnc(-c2cccs2)o1)c1cccc(C(F)(F)F)c1 | 11.6 µM [falling, partial curve] | 32.6 µM [falling, partial curve, poor fit] |
| CCOC(=O)N1CCc2c(sc(NCc3cccc(F)c3)c2C(=O)Nc2ccc(OCC)cc2)C1 | 31.6 µM [falling, single point] |  |
| CSCCC(NC(=O)OC(C)(C)C)C(=O)Oc1ccc2c(=O)c(-c3ccc4c(c3)OCCO4)coc2c1 (stereo unspecified) | 3.98 µM [falling, full curve] |  |

(listing goes on)

| SMILES | AC50 [1] | AC50 [2] |
| --- | --- | --- |
| O=C1N2c3ccccc3CCc3cccc(c32)C1(O)C(F)(F)F (stereo unspecified) | 6.51 µM [falling, single point] |  |
| O=c1[nH]c2ccccc2c(O)c1Cc1ccccc1 | 0.631 µM [falling, full curve, poor fit] |  |
| CCOC(=O)CNC(=O)c1sc(NC(=O)c2ccccc2F)nc1C | 10 µM [falling, partial curve, poor fit] |  |
| COc1ccc(NC(=O)c2cccnn2)cc1 | 5.62 µM [falling, single point] | 3.98 µM [rising, partial curve, poor fit] |
| O=C(NC(=S)Nc1ccc(N2CCCCC2)cc1)c1cccs1 | 25.9 µM [rising, partial curve, poor fit] |  |
| O=[N+]([O-])c1cccc(/C=N/N=C\c2ccccc2)c1 | 2.82 µM [rising, full curve] |  |
| CCn1c(/C=C2\C(=O)N(C(C)C)c3ccccc32)nc2ccccc2c1=O | 20 µM [falling, single point] |  |
| Cc1cc(OCC(=O)Nc2ccc3oc(=O)ccc3c2)ccc1Cl | 5.62 µM [falling, single point] |  |
| Cc1noc(NC(=O)c2ccc(Cl)cc2)c1Cl | 3.55 µM [rising, full curve, poor fit] |  |
| O=C(N/C=C/c1ccc(Cl)cc1)NCc1ccc(Cl)cc1 | 4.47 µM [falling, full curve, poor fit] |  |
| O=C(C[C@H]1C[C@H](C(=O)N2CCOCC2)[C@@]2(CCC3CCCC3)c3[nH]c4ccc(Cl)cc4c3CCN2C1=O)NCCCn1ccnc1 | 20.6 µM [falling, single point] |  |
| O=C(Nc1nnc(Cc2ccc([N+](=O)[O-])cc2)s1)Nc1ccccc1F | 35.5 µM [rising, single point] |  |
| O=C(CSc1nnc(-c2cccs2)o1)c1cccs1 | 25.1 µM [falling, single point] |  |
| O=C(c1cccs1)N1CCCC(c2nc3c(nnn3Cc3ccccc3)c(=O)[nH]2)C1 (stereo unspecified) | 3.55 µM [falling, single point] |  |
| Cn1c(N2CCOCC2)nc2c1c(=O)n(Cc1ccc(Cl)c(Cl)c1)c(=O)n2C | 6.51 µM [falling, single point] |  |
| CN(C)S(=O)(=O)c1ccc(NC(=O)COC(=O)c2ccccn2)cc1 | 6.31 µM [falling, single point] |  |
| CCn1c(=O)n(CC)c2cc(NC(=O)c3ccccc3Cl)ccc21 | 10 µM [falling, partial curve] |  |
| CCOC(=O)Cc1csc(NC(=O)C(NC(=O)C2CCC(C)CC2)C(C)C)n1 (stereo unspecified) | 17.8 µM [falling, single point] |  |
| CCC(C)C(NC(=O)C1CCC(C)CC1)C(=O)Nc1ccc(OC)cc1OC (stereo unspecified) | 11.2 µM [rising, partial curve, poor fit] |  |
| CCn1c(=O)c(C(=O)NC(C)C)c(O)c2ccccc21 | 29.1 µM [rising, single point] |  |
| O=C(Nc1ccc2c(c1)OCCO2)c1cc2sccc2n1Cc1ccccc1 |  | 5.01 µM [rising, full curve, poor fit] |
